Measured values published in paper PMC13649568.
No constants are given. Whether binding was seen depends on the method and setting. Binding seen in cells or lysates may run through a third protein. Some binding calls cover weakened binding; strength is not graded here. Sequences can lack the tags named with a protein.

Molecular target: T1, FLAG-tagged SESN3 (human (endogenous in Jurkat)) (UniProt P58005)
T1 sequence: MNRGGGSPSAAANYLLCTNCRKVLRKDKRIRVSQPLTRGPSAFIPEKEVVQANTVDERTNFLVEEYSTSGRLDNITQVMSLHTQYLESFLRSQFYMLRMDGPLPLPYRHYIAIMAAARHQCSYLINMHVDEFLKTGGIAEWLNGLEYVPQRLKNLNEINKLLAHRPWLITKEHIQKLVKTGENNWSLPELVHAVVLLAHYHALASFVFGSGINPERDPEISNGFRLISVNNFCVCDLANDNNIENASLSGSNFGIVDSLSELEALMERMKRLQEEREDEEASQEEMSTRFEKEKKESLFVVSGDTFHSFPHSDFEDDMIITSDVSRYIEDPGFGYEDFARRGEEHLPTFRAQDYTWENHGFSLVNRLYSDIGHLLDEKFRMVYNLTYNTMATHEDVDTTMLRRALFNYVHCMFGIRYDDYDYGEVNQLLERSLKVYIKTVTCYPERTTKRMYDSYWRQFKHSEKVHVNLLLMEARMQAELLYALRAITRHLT
Assay: co-IP; Lysate of endogenously FLAG-tagged SESN3 Jurkat cells, anti-FLAG M2 magnetic beads, 2 h at 4 °C, eluted with FLAG peptide, western blot for WDR59. Lysis buffer: 25 mM Tris-HCl pH 7.5, 150 mM NaCl, 1 mM EDTA, 0.5% NP-40, 5% glycerol. Before lysis the cells were kept 1 h in RPMI (fed) or HBSS (starved), with or without the indicated free amino acid at 500 µM

binding: binds
B1: GATOR2 complex subunit, WDR59 (protein, UniProt Q6PJI9 1-974)
chain: MAARWSSENVVVEFRDSQATAMSVDCLGQHAVLSGRRFLYIVNLDAPFEGHRKISRQSKWDIGAVQWNPHDSFAHYFAASSNQRVDLYKWKDGSGEVGTTLQGHTRVISDLDWAVFEPDLLVTSSVDTYIYIWDIKDTRKPTVALSAVAGASQVKWNKKNANCLATSHDGDVRIWDKRKPSTAVEYLAAHLSKIHGLDWHPDSEHILATSSQDNSVKFWDYRQPRKYLNILPCQVPVWKARYTPFSNGLVTVMVPQLRRENSLLLWNVFDLNTPVHTFVGHDDVVLEFQWRKQKEGSKDYQLVTWSRDQTLRMWRVDSQMQRLCANDILDGVDEFIESISLLPEPEKTLHTEDTDHQHTASHGEEEALKEDPPRNLLEERKSDQLGLPQTLQQEFSLINVQIRNVNVEMDAADRSCTVSVHCSNHRVKMLVKFPAQYPNNAAPSFQFINPTTITSTMKAKLLKILKDTALQKVKRGQSCLEPCLRQLVSCLESFVNQEDSASSNPFALPNSVTPPLPTFARVTTAYGSYQDANIPFPRTSGARFCGAGYLVYFTRPMTMHRAVSPTEPTPRSLSALSAYHTGLIAPMKIRTEAPGNLRLYSGSPTRSEKEQVSISSFYYKERKSRRWKSKREGSDSGNRQIKAAGKVIIQDIACLLPVHKSLGELYILNVNDIQETCQKNAASALLVGRKDLVQVWSLATVATDLCLGPKSDPDLETPWARHPFGRQLLESLLAHYCRLRDVQTLAMLCSVFEAQSRPQGLPNPFGPFPNRSSNLVVSHSRYPSFTSSGSCSSMSDPGLNTGGWNIAGREAEHLSSPWGESSPEELRFGSLTYSDPRERERDQHDKNKRLLDPANTQQFDDFKKCYGEILYRWGLREKRAEVLKFVSCPPDPHKGIEFGVYCSHCRSEVRGTQCAICKGFTFQCAICHVAVRGSSNFCLTCGHGGHTSHMMEWFRTQEVCPTGCGCHCLLESTF
